These results are taken from paper PMC7819943, “Rice protein-binding microarrays: a tool to detect cis-acting elements near promoter regions in rice”.

Protein sequences, listed by entry. Tags and fused reporters are not part of them.
UniProt Q0JBA9, entry or part of it: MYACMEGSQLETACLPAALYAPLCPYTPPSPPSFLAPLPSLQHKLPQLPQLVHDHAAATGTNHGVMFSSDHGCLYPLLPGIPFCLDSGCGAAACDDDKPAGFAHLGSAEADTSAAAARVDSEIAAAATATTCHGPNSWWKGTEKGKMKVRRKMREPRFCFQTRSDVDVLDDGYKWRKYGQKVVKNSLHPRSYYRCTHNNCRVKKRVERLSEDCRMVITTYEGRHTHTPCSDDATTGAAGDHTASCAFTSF

The list shows a part of the results.

The target of this assay is OsWRKY34 (Oryza sativa, UniProt Q0JBA9 1-250). The assay is described as follows: protein-binding microarray (RPBM); PBS, 2% BSA, 51.3 ng/ul salmon testes DNA, 50 uM zinc acetate, 200 nM TF, 25 C, 1 h; high values mean tight binding. Conditions: protein: recombinant; tags: N-terminal polyhistidine and DsRed monomer fusion (pET32a); label: CyDye5-dUTP incorporated in the synthesized complementary strand; 3' TTTTT single-stranded linker to array surface; dsDNA, one strand shown. The procedure, abridged: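 The binding signal is fluorescence intensity per feature, in arbitrary units, read on an Axon 4000B scanner. Polyhistidine- and DsRed-tagged transcription factors (N-terminal fusions) from E. coli BL21-CodonPlus were purified on Ni–NTA and applied at 200 nM for 1 h at 25 °C to a double-stranded, BSA-blocked custom Agilent array in buffer with 50 µM zinc acetate.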
Turning to “AGATATGTAGTCCGTCATTCTTTTCTATCATCTTTTATCTCGGAGTCACCTAGTGCAG”, the binding signal is 11700 fluorescence intensity (a.u.).
For “CCTACCGCTCATCATCTTCTCTAGCCACAGGCCACAACCTCGGAGTCACCTAGTGCAG” the value was 8520 fluorescence intensity (a.u.); for “TGATGTTTCTGTCCTTACTTATTTGACCCTGTATTAATTACGGAGTCACCTAGTGCAG”, 10800 fluorescence intensity (a.u.); for “GATTGATCGCCTCTCCGCCGCCGCCGCTGCCGCCGCAGCCCGGAGTCACCTAGTGCAG”, 9580 fluorescence intensity (a.u.).
For “GCAACACGCTCCTTCCGCTTGAGGCCAAGTAGCAGCTTCCCGGAGTCACCTAGTGCAG” the value was 8050 fluorescence intensity (a.u.); for “GCCATTGACAGCGTTGACCAAGTCAGCCGCTCCAGCCTCTCGGAGTCACCTAGTGCAG”, 14200 fluorescence intensity (a.u.); for “AACTTCCTTTGTTTTGCAAAAACTTTTTATATATAAGTTTCGGAGTCACCTAGTGCAG”, 8420 fluorescence intensity (a.u.).
For “CCGCCCATCTAGTCTTGGCCGCGGCGCCACCTCGCAAGTCCGGAGTCACCTAGTGCAG” the value was 8260 fluorescence intensity (a.u.).
Consider “AACAGTTACAGCCCCATGGATCCATAGCCAGTTAGCCACGCGGAGTCACCTAGTGCAG”, for which the binding signal was 8550 fluorescence intensity (a.u.).
As to “AAACGGTGCGTTTTTTGCAAAAAAATTCTATAGGAAAGTTCGGAGTCACCTAGTGCAG”, the binding signal is 63900 fluorescence intensity (a.u.).
For “ACTGTCCTCCACGCACATCACTCGTTTCCATTATTTATACCGGAGTCACCTAGTGCAG” the value was 11600 fluorescence intensity (a.u.); for “GTATGTCCGCTTTCCGTCGGGTCGGTTCCTACCTCCCTGACGGAGTCACCTAGTGCAG”, 8130 fluorescence intensity (a.u.).
In the case of “AACTTTCAGACATGCCTCTTGCTATACTATATATATTGCACGGAGTCACCTAGTGCAG”, the binding signal is 8690 fluorescence intensity (a.u.).
In the case of “GCATGACCCCACAACATCTTGATAGTTCATGTTCATTCTCCGGAGTCACCTAGTGCAG”, the binding signal is 10700 fluorescence intensity (a.u.).
Consider “TGCTTTTCATGTTTATTGATTTAGGCGCACCTGTTCTGTTCGGAGTCACCTAGTGCAG”, for which the binding signal was 8350 fluorescence intensity (a.u.).
For “GGTGATTTGGTTTTGTTTCAGTTTTTTTTTAAAAAAAATGCGGAGTCACCTAGTGCAG” the value was 10500 fluorescence intensity (a.u.); for “AGGGTGGGTGGCGCGGGCCGCCGCCGGTTCGACGCCGGCGCGGAGTCACCTAGTGCAG”, 10500 fluorescence intensity (a.u.); for “TATTTACACTACACCCAATATATTTGCTACCAATCCACTTCGGAGTCACCTAGTGCAG”, 8970 fluorescence intensity (a.u.).
For “AGATATTTACACGTTCATGTCTCCTGATGTTCACAAAGCTCGGAGTCACCTAGTGCAG” the value was 8050 fluorescence intensity (a.u.); for “TTTCTGCACTTGTGGATAACTCTGCAGTGATTTTTTATTTCGGAGTCACCTAGTGCAG”, 8630 fluorescence intensity (a.u.); for “CTCTCTCGCTTCTTCTCTGTGTGTGTGTTGCGTGGTGGGGCGGAGTCACCTAGTGCAG”, 23800 fluorescence intensity (a.u.).
For “AAATTCGCAGTATATATCTCACGCAATACTATTTAAACATCGGAGTCACCTAGTGCAG” the value was 8192 fluorescence intensity (a.u.); for “GTTTGCCTTCACTTATTTTCTTCTAACCTACGACATTTTTCGGAGTCACCTAGTGCAG”, 10600 fluorescence intensity (a.u.).
With “CCGCTCTTTTTCTCCTTTCCTTCTTGGAGTATCTTTATCTCGGAGTCACCTAGTGCAG”, the binding signal was 9980 fluorescence intensity (a.u.).
For “CCCCTATTTTGTTACCTCATTATTCTCGTATTCCCCTTTTCGGAGTCACCTAGTGCAG” the value was 9810 fluorescence intensity (a.u.); for “CGGGGCAGTGACCACCACCACCACATCACCCACCGCATTCCGGAGTCACCTAGTGCAG”, 9180 fluorescence intensity (a.u.).
For “GCTCCAGATCTGTGGGTGTCTTTGGGTGAGTGGGCAAATACGGAGTCACCTAGTGCAG” the value was 11200 fluorescence intensity (a.u.).
For “GTGCTCATCAATAAGTTATTCTCTCTCTCTCAAACAGAAACGGAGTCACCTAGTGCAG” the value was 8880 fluorescence intensity (a.u.).
In the case of “AAACTAGGTCTGTTAATCACGGTTCTAAATTTTATCCCCTCGGAGTCACCTAGTGCAG”, the binding signal is 8200 fluorescence intensity (a.u.).
For “TCGTTTTTGTTTAGCTACACTAGCCCGTTCTTTTTGACTCCGGAGTCACCTAGTGCAG” the value was 11300 fluorescence intensity (a.u.).
In the case of “TTTCTTTTTTTAGACGGAGGGAGTATTTTACAGGGGTTTCCGGAGTCACCTAGTGCAG”, the binding signal is 8380 fluorescence intensity (a.u.).
For “TCCCGCCACGCCACCCCACTGTTTCATTCCCTCGTGGCGCCGGAGTCACCTAGTGCAG” the value was 8160 fluorescence intensity (a.u.).
For “ATCAGTTTTTTGTCAGTTTTGCAATTGCAATTCCAACTTCCGGAGTCACCTAGTGCAG” the value was 10200 fluorescence intensity (a.u.); for “ATTTAACTTTTATGAGTGTCGTATTATTCGCATGTTTTAACGGAGTCACCTAGTGCAG”, 8560 fluorescence intensity (a.u.).
Turning to “CCTCCTCGTCCTTGGCCTCTTCGTTCCTTTTGTCGAATCTCGGAGTCACCTAGTGCAG”, the binding signal is 8430 fluorescence intensity (a.u.).
For “CCCTCTCTCTCCCCGTCGCGTAAGGCCGCTATAAATCAACCGGAGTCACCTAGTGCAG” the value was 8660 fluorescence intensity (a.u.); for “TATCTCTTTTGCTATCGATTTCAGTGAGACCCCTGTGATGCGGAGTCACCTAGTGCAG”, 9110 fluorescence intensity (a.u.); for “TTTGGTGTTCTTCGCTGCTGTGCGCGATCCGGTTTGGTGACGGAGTCACCTAGTGCAG”, 9350 fluorescence intensity (a.u.).
For “GCAGACAAGGCCAAATTTTCCATCTTCAACAGCACCATCTCGGAGTCACCTAGTGCAG” the value was 9200 fluorescence intensity (a.u.); for “CTGACAACCTTTAGTACACCTGCTCTAACCGATTCTTACCCGGAGTCACCTAGTGCAG”, 10400 fluorescence intensity (a.u.).
For the sequence “TCTGCACGCCACTTGGGCTCCACCTTAAGACTGTGTTAACCGGAGTCACCTAGTGCAG”, the binding signal is 8720 fluorescence intensity (a.u.).
For “TCCATCTCCATTTTCCTCGCAATCATTCCGTTCAGTTATACGGAGTCACCTAGTGCAG” the value was 10100 fluorescence intensity (a.u.).
